In patent US10563263B2, “Genetic polymorphisms associated with statin response and cardiovascular diseases, methods of detection and uses thereof” (CELERA CORPORATION, priority 2010, dated 2020):
The source gives many values for each of these; only a part stands here.

System: CHD (fatal CHD, definite non-fatal MI, or revascularization)
Assay: CARE: SNP by pravastatin treatment interaction, logistic regression (synergy index), CHD endpoint
Format: in vivo, human
Source text: CARE was a secondary prevention trial and WOSCOPS was a primary prevention trial.
The CHD endpoint was defined in the analyses herein of CARE as a composite endpoint of fatal CHD, definite non-fatal MI, or revascularization, and was defined in the analyses herein of WOSCOPS as a composite endpoint of death from CHD, nonfatal MI, or revascularization. In both the CARE and WOSCOPS analyses herein, the CVD endpoint was defined as a composite endpoint of CHD or stroke. […] Revascularization, which can include percutaneous transluminal coronary angioplasty (PTCA), stent placement, and coronary artery bypass graft (CABG), are medical interventions that indicate the presence of CHD.
Cohort and case-only study designs were used to identify SNPs associated with response to statin treatment.
For each SNP, a logistic regression model having treatment status as the dependent variable and SNP as the independent predictor variable was performed, with terms for age, sex and race included in the model as covariates. The anti-log of the regression coefficient corresponding to the SNP is an estimate of the synergy index (SI) (Davis et al., “Imputing gene-treatment interactions when the genotype distribution is unknown using case-only and putative placebo analyses-a new method for the Genetics of Hypertension Associated Treatment (GenHAT) study”, Statistics in Medicine 23: (2004), pages 2413-2427). The SI is a ratio of odds ratios: for example in the CARE and WOSCOPS studies, the SI represents the factor by which the odds-ratio of statin treatment, compared with placebo, among major homozygous individuals is multiplied by in order to obtain the odds-ratio of treatment vs. placebo among heterozygous individuals; and multiplied by a second time to obtain the odds-ratio of treatment vs. placebo in minor homozygous individuals. The case-only study design results in a valid estimate of the SI under the assumption that genotype and treatment are independent in the population. In a randomized clinical trial, genotype and treatment are independent by design. The p-value for the regression coefficient corresponding to the SNP results from a test of the null hypothesis that the regression coefficient is equal to zero (SI is equal to one) and thus small p-values indicate the SI is unlikely equal to one and that the effect of treatment likely differs by genotype.
A case-only study design was used to test whether the reduction of CHD events by statin therapy (for CARE and WOSCOPS studies) differed according to genotype (a treatment by SNP interaction) for each SNP evaluated in the study.

## CC[C@H](C)C(=O)O[C@H]1C[C@H](O)C=C2C=C[C@H](C)[C@H](CC[C@@H](O)C[C@@H](O)CC(=O)O)[C@H]21 [Pravastatin, pravastatin]
rs7612715 allele A vs G (ref), Source cohort
  CARE OR: 0.47
rs7625204 allele A vs G (ref), Source cohort
  CARE OR: 1.51
rs7629632 allele G vs A (ref), Source cohort
  CARE OR: 1.56
rs7639053 allele A ADD Imputed
  OR: 1.506
rs7648163 allele C REC Imputed
  OR: 1.993
rs7653190 allele C ADD Imputed
  OR: 1.504
rs7653685 allele C DOM Genotyped
  OR: 1.705
rs7671659 allele A vs G (ref), Source cohort
  CARE OR: 1.72
rs7684899 allele C DOM Imputed
  OR: 0.713
rs7701604 allele G ADD Imputed
  OR: 0.187
rs7701604 allele G DOM Imputed
  OR: 0.19
rs7703676 allele C ADD Imputed
  OR: 0.187
rs7703676 allele C DOM Imputed
  OR: 0.19
rs7711358 allele A DOM Imputed
  OR: 0.564
rs7713251 allele C REC Imputed
  OR: 2.098
rs7737608 allele G DOM Imputed
  OR: 1.904
rs7742508 allele A vs G (ref), Source cohort
  CARE OR: 2.19
rs7762993 allele A ADD Imputed
  OR: 1.726
rs7762993 allele A DOM Imputed
  OR: 2.011
rs7767265 allele G DOM Imputed
  OR: 2.106
rs7771264 allele T DOM Imputed
  OR: 0.635
rs7795792 allele T REC Imputed
  OR: 0.645
rs7806481 allele G REC Imputed
  OR: 0.439
rs7808536 allele G DOM Imputed
  OR: 1.455
rs7814819 allele G ADD Imputed
  OR: 2.408
rs7814819 allele G DOM Imputed
  OR: 2.577
rs7815952 allele T DOM Imputed
  OR: 2.585
rs7834090 allele T DOM Imputed
  OR: 2.585
rs7859250 allele C DOM Imputed
  OR: 0.52
rs7863577 allele A ADD Genotyped
  OR: 0.48
rs7863577 allele A DOM Genotyped
  OR: 0.479
rs7902140, allele C, ADD model, Imputed, NMISS 673
  OR: 0.63
rs7915250, A1 (non-ref) C, A2 (ref) G
  CARE OR: 0.69
rs7921834, allele C, DOM model, Imputed, NMISS 682
  OR: 1.786
rs7939893, allele C, ADD model, Imputed, NMISS 682
  OR: 0.707
rs7939893, allele C, DOM model, Imputed, NMISS 682
  OR: 0.641
rs7955901, allele C, ADD model, Imputed, NMISS 675
  OR: 0.723
rs7955901, allele C, DOM model, Imputed, NMISS 675
  OR: 0.582
rs7956274, allele T, ADD model, Imputed, NMISS 677
  OR: 0.74
rs7956274, allele T, DOM model, Imputed, NMISS 677
  OR: 0.598
rs7957932, allele G, ADD model, Imputed, NMISS 671
  OR: 0.738
rs7957932, allele G, DOM model, Imputed, NMISS 671
  OR: 0.57
rs7984294, allele A, DOM model, Imputed, NMISS 678
  OR: 1.497
rs7994286, allele A, ADD model, Imputed, NMISS 674
  OR: 0.538
rs7994286, allele A, DOM model, Imputed, NMISS 674
  OR: 0.5
rs8038229, allele A, ADD model, Genotyped, NMISS 682
  OR: 0.809
rs8038229, allele A, DOM model, Genotyped, NMISS 682
  OR: 0.742
rs8043336, allele C, REC model, Imputed, NMISS 647
  OR: 0.449
rs8054431, allele T, DOM model, Imputed, NMISS 652
  OR: 1.625
rs8066502, allele T, DOM model, Imputed, NMISS 681
  OR: 0.683
rs8068714, allele T, DOM model, Imputed, NMISS 682
  OR: 0.671
rs9292827 allele A vs G (ref), Source Caseonly
  CARE OR: 0.37
rs9301653, allele T, ADD model, Imputed, NMISS 682
  OR: 0.518
rs9301653, allele T, DOM model, Imputed, NMISS 682
  OR: 0.474
rs9309988, allele G, DOM model, Imputed, NMISS 682
  OR: 1.705
rs9309989, allele C, DOM model, Genotyped, NMISS 682
  OR: 1.731
rs9310221, allele A, DOM model, Imputed, NMISS 631
  OR: 2.083
rs9327555, allele T, DOM model, Imputed, NMISS 682
  OR: 0.56
rs9454967, allele G, ADD model, Imputed, NMISS 678
  OR: 2.104
rs9454967, allele G, DOM model, Imputed, NMISS 678
  OR: 2.304
rs9471295, allele T, DOM model, Imputed, NMISS 682
  OR: 1.569
rs9477007, allele A, ADD model, Imputed, NMISS 651
  OR: 1.476
rs9487279, allele T, DOM model, Imputed, NMISS 653
  OR: 0.61
rs9487284 allele A vs G (ref), Source cohort
  CARE OR: 0.61
rs9555973, allele G, ADD model, Imputed, NMISS 681
  OR: 0.538
rs9555973, allele G, DOM model, Imputed, NMISS 681
  OR: 0.501
rs9557510, allele G, ADD model, Imputed, NMISS 680
  OR: 1.629
rs9557510, allele G, DOM model, Imputed, NMISS 680
  OR: 1.768
rs9560584, allele T, DOM model, Imputed, NMISS 660
  OR: 0.489
rs9588770, allele T, DOM model, Imputed, NMISS 680
  OR: 0.529
rs9588848, allele C, ADD model, Imputed, NMISS 682
  OR: 0.518
rs9588848, allele C, DOM model, Imputed, NMISS 682
  OR: 0.474
rs9812206, allele G, ADD model, Imputed, NMISS 682
  OR: 0.481
rs9812206, allele G, DOM model, Imputed, NMISS 682
  OR: 0.466
